The source of these data is PMC6053369.

Amino acid sequences for entries named in this document (tags omitted). A change or cut given only in a name is not applied to a line headed by its entry. Residues count along the entry.
UniProt Q8BKJ9: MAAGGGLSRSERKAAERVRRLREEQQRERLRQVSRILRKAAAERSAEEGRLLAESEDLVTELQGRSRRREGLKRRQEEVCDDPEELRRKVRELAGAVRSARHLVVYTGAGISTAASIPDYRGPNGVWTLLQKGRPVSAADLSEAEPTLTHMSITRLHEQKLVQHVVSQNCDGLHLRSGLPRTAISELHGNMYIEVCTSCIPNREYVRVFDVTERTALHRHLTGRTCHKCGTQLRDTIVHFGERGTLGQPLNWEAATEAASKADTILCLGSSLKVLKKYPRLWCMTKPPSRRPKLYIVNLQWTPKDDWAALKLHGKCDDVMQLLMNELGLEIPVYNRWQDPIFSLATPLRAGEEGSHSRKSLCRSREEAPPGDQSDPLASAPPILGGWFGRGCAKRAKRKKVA
Halo-SIRT7 (M2)-FLAG: residues 91-210 of Q8BKJ9
UniProt Q8VI67: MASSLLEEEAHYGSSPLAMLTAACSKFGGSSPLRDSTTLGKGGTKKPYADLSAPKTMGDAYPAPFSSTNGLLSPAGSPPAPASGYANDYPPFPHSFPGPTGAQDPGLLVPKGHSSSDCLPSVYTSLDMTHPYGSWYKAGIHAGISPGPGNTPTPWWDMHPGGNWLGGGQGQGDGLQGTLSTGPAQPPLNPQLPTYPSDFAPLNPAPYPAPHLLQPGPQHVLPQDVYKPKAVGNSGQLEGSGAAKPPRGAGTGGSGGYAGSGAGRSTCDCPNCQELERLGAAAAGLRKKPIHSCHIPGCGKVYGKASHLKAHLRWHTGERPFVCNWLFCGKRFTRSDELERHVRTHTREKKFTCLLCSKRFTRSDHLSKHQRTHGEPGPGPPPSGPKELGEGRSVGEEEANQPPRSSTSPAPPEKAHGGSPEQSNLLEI

Results are given in words; binding and its absence hold for the method and conditions named. Binding seen in cells or lysates may run through a third protein. Some binding calls cover weakened binding; strength is not graded here. For some assays here: Tags and fused reporters may be left off the sequences shown.

The target in assay [1] is Halo-SIRT7-FLAG (UniProt Q8BKJ9). Nature of the assay: pull-down; HaloTag pull-down: Halo fusion proteins (30 ug) immobilised on HaloLink Resin, incubated with 500 ug lysate of transfected HEK293T cells in pull-down buffer (10 mM Tris-HCl pH 7.4, 150 mM NaCl, 1% NP-40, 10 mM NaF, 10 mM Na4P2O7), overnight at 4 C, five washes; western blot; only the target …. On the technique in general: In western blotting, separated proteins are transferred to a membrane and probed.

The target in assay [2] is HA-SIRT7 (UniProt Q8BKJ9). Nature of the assay: co-IP; HEK293T cells transfected for 24 h, lysed in IP buffer (20 mM Tris-HCl pH 7.4, 200 mM NaCl, 2.5 mM MgCl2, 0.05% NP-40); immunoprecipitation overnight at 4 C with anti-HA antibody beads; western blot.
Assay [3] addresses T1, HA-SIRT1 (mouse) (UniProt Q923E4).
T1 sequence: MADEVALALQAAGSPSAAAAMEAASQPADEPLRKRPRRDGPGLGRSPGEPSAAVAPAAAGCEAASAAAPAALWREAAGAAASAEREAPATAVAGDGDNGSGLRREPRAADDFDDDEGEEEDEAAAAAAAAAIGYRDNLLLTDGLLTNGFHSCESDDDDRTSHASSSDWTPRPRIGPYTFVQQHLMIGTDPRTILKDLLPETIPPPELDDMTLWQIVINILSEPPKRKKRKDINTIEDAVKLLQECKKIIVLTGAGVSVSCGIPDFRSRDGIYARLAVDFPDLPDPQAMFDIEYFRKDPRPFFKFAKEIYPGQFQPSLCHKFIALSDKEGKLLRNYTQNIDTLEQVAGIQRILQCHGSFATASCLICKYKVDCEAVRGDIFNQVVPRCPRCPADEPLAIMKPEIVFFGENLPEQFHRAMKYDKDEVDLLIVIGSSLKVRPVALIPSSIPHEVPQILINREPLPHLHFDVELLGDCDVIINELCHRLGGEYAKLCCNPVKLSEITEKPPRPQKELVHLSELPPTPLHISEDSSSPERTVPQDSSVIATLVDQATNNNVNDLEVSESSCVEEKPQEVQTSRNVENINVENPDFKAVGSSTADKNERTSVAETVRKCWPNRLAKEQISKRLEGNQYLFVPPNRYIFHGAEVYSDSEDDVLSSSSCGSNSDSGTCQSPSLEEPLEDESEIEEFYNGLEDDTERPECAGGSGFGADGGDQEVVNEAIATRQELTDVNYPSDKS
The description is as above.

In assay [4] the target is endogenous OSX (primary calvarial osteoblasts) (mouse (endogenous in primary calvarial osteoblasts)) (UniProt Q8VI67). Nature of the assay: co-IP; endogenous proteins in primary calvarial osteoblasts differentiated for 6 days; IP buffer (20 mM Tris-HCl pH 7.4, 200 mM NaCl, 2.5 mM MgCl2, 0.05% NP-40); anti-OSX-conjugated magnetic beads, overnight at 4 C; western blot.
The target in assay [5] is Halo-SIRT7 (M2)-FLAG (UniProt Q8BKJ9). Description: pull-down; HaloTag pull-down: Halo fusion proteins (30 ug) immobilised on HaloLink Resin, incubated with 500 ug lysate of transfected HEK293T cells in pull-down buffer (10 mM Tris-HCl pH 7.4, 150 mM NaCl, 1% NP-40, 10 mM NaF, 10 mM Na4P2O7), overnight at 4 C, five washes; western blot; only the target ….
Assay [6] addresses Halo-SIRT7-FLAG (UniProt Q8BKJ9). Description: pull-down; HaloTag pull-down: Halo-SIRT7 on HaloLink Resin with lysate of MC3T3-E1 cells without NAM treatment; endogenous OSX detected; only the target purified.
Assay [7] has the same target. Description: pull-down; HaloTag pull-down: Halo-SIRT7 on HaloLink Resin with lysate of MC3T3-E1 cells treated with nicotinamide (NAM); endogenous OSX detected; only the target purified.

On to “GAL4DBD-OSX (293-428) (from UniProt Q8VI67 293-428) (domain or fragment)”, for which the binding entry in assay [1] is “binds”. On to “OSX (expressed in HEK293T cells for co-immunoprecipitation with HA-SIRT7) (from UniProt Q8VI67 1-428)”, for which, in assay [2], the binding entry is on record as “binds”. For the substance “GAL4DBD-OSX (27-270) (from UniProt Q8VI67 27-270) (domain or fragment)”, in assay [3], the binding result is “binds”. On to “endogenous SIRT7 (from UniProt Q8BKJ9 1-402) (enzyme)”, for which the binding entry in assay [4] is on record as “binds”. Take OSX-HA (from UniProt Q8VI67 1-428): the binding result in assay [1] and in assay [5] was “binds” throughout. Turning to “endogenous OSX derived from MC3T3-E1 cells (from UniProt Q8VI67 1-428)”, the results for the binding result in assay [6] and in assay [7] were “binds weakly” and “binds”, respectively.
